These are yes or no findings as the source states them, for the method shown. Binding seen in cells or lysates may run through a third protein. Some results given as binding are weak or reduced against the parent protein; the word gives no strength.

Chains of the proteins cited; added tags and fusions are not shown.
UniProt Q9WVB2: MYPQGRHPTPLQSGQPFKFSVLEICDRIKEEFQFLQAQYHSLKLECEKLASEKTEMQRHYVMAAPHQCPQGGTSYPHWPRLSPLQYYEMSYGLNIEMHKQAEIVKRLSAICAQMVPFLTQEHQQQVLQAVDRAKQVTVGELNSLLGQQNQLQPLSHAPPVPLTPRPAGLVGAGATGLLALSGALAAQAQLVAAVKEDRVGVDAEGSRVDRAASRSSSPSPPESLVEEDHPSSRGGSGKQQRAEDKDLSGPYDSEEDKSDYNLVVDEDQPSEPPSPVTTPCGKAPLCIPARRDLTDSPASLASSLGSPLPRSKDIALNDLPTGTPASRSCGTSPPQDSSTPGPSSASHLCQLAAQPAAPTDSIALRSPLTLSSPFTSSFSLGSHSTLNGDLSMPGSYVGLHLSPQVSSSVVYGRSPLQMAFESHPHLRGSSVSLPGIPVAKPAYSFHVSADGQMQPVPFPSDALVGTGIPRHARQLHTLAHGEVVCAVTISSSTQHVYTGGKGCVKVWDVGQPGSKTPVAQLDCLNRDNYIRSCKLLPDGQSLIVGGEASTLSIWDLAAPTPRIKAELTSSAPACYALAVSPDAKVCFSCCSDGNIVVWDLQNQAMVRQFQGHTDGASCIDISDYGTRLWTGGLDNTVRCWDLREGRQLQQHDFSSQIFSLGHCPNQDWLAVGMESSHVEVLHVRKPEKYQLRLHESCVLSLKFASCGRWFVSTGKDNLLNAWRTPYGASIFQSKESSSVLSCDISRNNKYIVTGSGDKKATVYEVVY
UniProt O35085: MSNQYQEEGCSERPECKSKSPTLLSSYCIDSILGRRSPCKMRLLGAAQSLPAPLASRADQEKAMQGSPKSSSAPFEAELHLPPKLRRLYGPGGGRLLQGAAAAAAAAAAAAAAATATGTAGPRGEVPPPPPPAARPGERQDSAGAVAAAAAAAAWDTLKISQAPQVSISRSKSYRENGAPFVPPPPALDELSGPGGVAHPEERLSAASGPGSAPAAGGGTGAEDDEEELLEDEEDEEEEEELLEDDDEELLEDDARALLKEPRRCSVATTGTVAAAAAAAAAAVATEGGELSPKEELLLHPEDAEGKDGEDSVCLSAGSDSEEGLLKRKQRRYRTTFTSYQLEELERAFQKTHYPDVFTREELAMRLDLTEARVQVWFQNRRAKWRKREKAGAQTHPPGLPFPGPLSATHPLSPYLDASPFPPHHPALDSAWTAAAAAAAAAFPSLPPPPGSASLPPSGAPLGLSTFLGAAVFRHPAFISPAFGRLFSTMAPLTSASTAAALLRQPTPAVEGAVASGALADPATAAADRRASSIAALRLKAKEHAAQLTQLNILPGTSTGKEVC

Experiment [1] addresses Flag tagged Tle2 (mouse) (UniProt Q9WVB2). As to the kind of experiment: co-IP; lysate of Min6 cells transfected with pCMS-6xHis-Arx and pCMS-Flag-Tle2, 48 hrs; precipitation with anti-Tle2, rabbit IgG as control; blot with anti-His.
Experiment [2] has as its target T1, Hes1 (mouse (endogenous in Min6)) (UniProt P35428).
T1 sequence: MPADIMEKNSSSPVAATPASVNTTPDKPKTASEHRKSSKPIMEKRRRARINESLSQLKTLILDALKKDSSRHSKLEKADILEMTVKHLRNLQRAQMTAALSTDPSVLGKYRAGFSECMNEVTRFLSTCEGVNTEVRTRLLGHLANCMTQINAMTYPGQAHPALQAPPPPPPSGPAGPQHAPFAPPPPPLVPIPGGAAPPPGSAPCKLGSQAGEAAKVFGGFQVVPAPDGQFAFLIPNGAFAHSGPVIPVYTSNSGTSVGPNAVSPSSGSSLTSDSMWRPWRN
As to the kind of experiment: co-IP; 200 ug Min6 lysate, endogenous proteins; precipitation with rabbit anti-Tle2 or anti-Hes1 and ProteinA-Sepharose, 4°, rabbit IgG as control; Western blot.

The target of experiment [3] is Tle2 (mouse (endogenous in Min6)) (UniProt Q9WVB2). The description is as above.

As to “6xHis tagged Arx (from UniProt O35085 1-564)”, in experiment [1], the binding result is given as “binds”.

As for Tle2 (from UniProt Q9WVB2 1-767), the binding entry in experiment [2] is recorded as “binds”.

B1: Nkx2-2 (protein, UniProt P42586 1-273)
chain: MSLTNTKTGFSVKDILDLPDTNDEDGSVAEGPEEESEGPEPAKRAGPLGQGALDAVQSLPLKSPFYDSSDNPYTRWLASTEGLQYSLHGLAASAPPQDSSSKSPEPSADESPDNDKETQGGGGDAGKKRKRRVLFSKAQTYELERRFRQQRYLSAPEREHLASLIRLTPTQVKIWFQNHRYKMKRARAEKGMEVTPLPSPRRVAVPVLVRDGKPCHALKAQDLAAATFQAGIPFSAYSAQSLQHMQYNAQYSSASTPQYPTAHPLVQAQQWTW
Consider B1, for which the binding entry in experiment [3] is “binds”.

Values taken from paper PMC2551604.
